# Library screen at single concentrations

The values are deposited in ChEMBL (CHEMBL3988442, “University of Dundee, Small-Polar-MMV Screening Library” (2021)).

A: 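Growth of Mycobacterium tuberculosis over 3 days (7H9 medium with glucose and tyloxapol); the read-out is not stated. Concentration: 50 µM. Higher reads as more growth inhibition (inferred: compounds with an IC50 in retests scored well above the rest). Of about 69,000 compounds tested this way, about 760 (1.1%) reached 50% or more in at least one test.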
B: 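Growth of Mycobacterium tuberculosis over 4 days (cholesterol / DPPC medium with tyloxapol); the read-out is not stated. Tested at 50 µM. Higher reads as more growth inhibition (inferred: compounds with an IC50 in retests scored well above the rest). Of about 69,000 compounds tested this way, about 370 (0.54%) reached 50% or more in at least one test.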

Results are given as percent effect.
The record does not define 0% and 100%; most values in the screen are far below 50% and negative numbers occur (in some assays of this library far below -100).
The compounds are a random part of those screened.
Two or more numbers in one place are separate tests of the same structure; such repeats can differ widely.

CCOCC1CN(Cc2cccs2)Cc2nn(C)cc21.O=C(O)C(F)(F)F (stereo unspecified) gave A: -20.66%; B: -19.05%.
CN(C)C(C(=O)NC1(CO)CCCC1)c1ccc(F)cc1 (stereo unspecified) gave A: -41.11%; B: -19.15%.
Cc1nn(C)c2c(N(C)Cc3cccs3)nc(C3CC3)nc12 gave A: 3.535%; B: 12.22%.
CCCc1ccc(CN2CCC3(CC2)CNC(=O)C3)o1 gave A: -19.58%; B: -5.455%.
Cc1cccc(C(=O)N2CCc3ncnc(C4CCOC4)c3CC2)n1.O=C(O)C(F)(F)F (stereo unspecified) gave A: -28.19%; B: -21.09% and -29.11%.
COc1ccc(Cn2cc(C(=O)N(C)Cc3ccn[nH]3)nn2)cc1 gave A: 0.2346% and -12.67%; B: 10.76%.
COc1c(C)cnc(CSc2nnc(N3CCCC3)s2)c1C gave A: -41.11%; B: -11.99% and -8.867%.
O=C(c1cc(C2CCCC2)no1)N1CCCCC1 gave A: 41.98% and 39.49%; B: 36.1%.
COc1ccc(Br)c(NC(=O)NCc2ncnn2C)c1 gave A: 33.19%; B: 8.649%.
[H][C@@]12CN(Cc3cccnc3)CCO[C@]1([H])CN(C(=O)c1c(C)noc1C)C2 gave A: 13.85%; B: 0.6122%.
O=C(NC1CC1)c1cc(NC(=O)N2CCOCC2)ccc1Cl gave A: -21.77%; B: -29.54%.
CC(C)C(=O)N1CCCC12CCCN(C(=O)c1ccno1)C2 (stereo unspecified) gave A: -10.33%; B: -24.64%.
CC(=O)N1CCC2(CCCN(S(=O)(=O)c3ccccc3)C2)C1 (stereo unspecified) gave A: -29.29%; B: -17.99%.
CCNC(=O)N(C)C1CCN(Cc2ncc(C)c(OC)c2C)CC1 gave A: 10.29%; B: -7.287%.
COCc1nc(CNc2cccc(-c3ncon3)c2)cs1 gave A: 20.05%; B: -21.23%.
[H][C@@]12CN(Cc3ccccc3F)C[C@]1([H])OCCN2c1ncccn1 gave A: 9.303%; B: -3.281%.
CCC(C)(COc1ncccc1Cl)NCC(=O)NC1CCCCC1 (stereo unspecified) gave A: 15.31%; B: 14.99%.
O=C(c1cncs1)N1CCC(c2cnccn2)CC1 gave A: 1.867%; B: 5.074%.
Cc1noc(C)c1-c1cncc(C2CCCN2Cc2ncc[nH]2)n1 (stereo unspecified) gave A: 1.948%; B: -3.565%.
CCn1nnc2c1CCN(C(=O)c1ccc3c(c1)OCO3)C2COC (stereo unspecified) gave A: -33.69% and -12.99%; B: -15.64%.
CC(C)c1n[nH]c(C2CN(C(=O)c3ccnc(C4CC4)n3)CCO2)n1 (stereo unspecified) gave A: 20.34%; B: -1.416%.
O=S1(=O)CCN(c2nc(C3CC3)ns2)CC1 gave A: -35.78%; B: -1.935% and 0.7857%.
O=C(O)C(F)(F)F.[H][C@@]12CCN(C3CCCCC3)C[C@]1(C(=O)N1CCCO1)CCO2 gave A: 28.26%; B: 15.43%.
COCC(=O)NCCC(=O)N1CCN(S(=O)(=O)c2cccc(Br)c2)CC1 gave A: -18.12%; B: -3.79%.
O=C(Cc1ccccn1)N1CCn2cc(Cn3cncn3)nc2C1 gave A: 12.92% and -3.98%; B: -12.79%.
O=C(NCc1nncn1C1CC1)C1(c2ccc(F)cc2)CCCC1 gave A: -18.9%; B: -17.77%.
Cc1ncncc1C(=O)N1CCCN(Cc2ncc(Cl)n2C)CC1 gave A: 12.49% and -2.58%; B: 9.289%.
NC(=O)CN1CCCC(C(=O)N2CCC(O)(Cc3ccccc3)CC2)C1 (stereo unspecified) gave A: -0.8172% and -0.6089%; B: -11.65%.
COc1cccc(CCC(=O)Nc2cnc3c(c2)c(C)nn3C)c1OC gave A: -6.114%; B: -17.67%.
CNc1nc2c(c(C(=O)N3CCCC3)n1)CN(Cc1nccn1C)CC2 gave A: 0.2137%; B: -24.24%.
CN(Cc1ccco1)Cc1ccccc1CNC(=O)c1ccc[nH]1 gave A: 0.3693%; B: 30.47%.
[H][C@@]12CCN(Cc3ccoc3)C[C@@]1([H])O[C@H](C(=O)NC)C2 gave A: -5.311%; B: 0.2262%.
CCCc1cc(=O)[nH]c(SCc2ccccn2)n1 gave A: 7.04%; B: 0.4546%.
[H][C@]12CC[C@]([H])(CN(Cc3cccc(-c4cccc(OC)c4)c3)C1)N(C)C2=O gave A: -23.46%; B: -22.89%.
NC(=O)c1cc(C2CCCN(C(=O)CCc3cscn3)C2)n[nH]1 (stereo unspecified) gave A: 9.589%; B: -7.114%.
CNC(=O)c1ccc(C2CN(C(=O)c3coc(C)n3)CCO2)nc1 (stereo unspecified) gave A: -12.83%; B: -13.17%.
CCCN(CC1COc2ccccc2O1)C(=O)CCn1cncn1 (stereo unspecified) gave A: -8.084%; B: -8.082%.
CCn1c(C)nnc1SCCNC(=O)c1cnc(N(C)C)nc1C gave A: -7.358%; B: -5.465%.
CS(=O)(=O)c1cccc(C(=O)NCc2nc3cc(F)ccc3[nH]2)c1 gave A: -7.997%; B: -11.31%.
Cc1nccn1-c1cc(CNC(=O)c2ccccn2)ccn1 gave A: -3.815% and 11.54%; B: -12.19%.
c1ccc(Cc2noc(CN3CCCC(Cn4cncn4)C3)n2)cc1 (stereo unspecified) gave A: 27.05%; B: 18.06%.

For reference, 2 entries once more:

structure	A	B
Cc1ncncc1C(=O)N1CCCN(Cc2ncc(Cl)n2C)CC1	12.49 and -2.58	9.289
c1ccc(Cc2noc(CN3CCCC(Cn4cncn4)C3)n2)cc1 (stereo unspecified)	27.05	18.06